Results taken from patent US20180085356A1, “METHOD OF TREATING DISEASE CHARACTERISED BY PROTEIN AGGREGATE DEPOSITION IN NEURONAL CELLS” (CHRONOS THERAPEUTICS LIMITED, priority 2013, published 2018).

Tests used:
[1] = tested on: primary motor neuron (MN) cultures generated from rat spinal cord; experiment: Motor neuron culture with Aβ1-42 insult: neurite network and survival (MAP-2 staining); type: cell-based; conditions: 10 μM riluzole
Experimental: (§1) Primary motor neuron (MN) cultures generated from rat spinal cord were treated with 20 μM amyloid beta 1-42 peptide (Aβ1-42). […] This model was used to determine the effect of tacrolimus on TDP-43 toxicity in motor neurons. […] After permeabilisation with 0.1% saponin, one group of cells was incubated for 2 hours with a) mouse monoclonal anti-microtubule-associated-protein 2 (MAP-2) antibody, and b) rabbit polyclonal anti-TDP-43 antibody. The anti-MAP-2 antibody was used to determine MN survival (number of stained MN) and MN neurite length. The anti-TDP-43 antibody was used to examine extranuclear TDP-43: the area of extranuclear TDP-43 staining per MN was calculated by normalising to the number of MAP-2 positive cells.

[2] = tested on: TDP-43; experiment: Motor neuron culture with Aβ1-42 insult: extranuclear TDP-43 accumulation; type: cell-based, rat; conditions: 5 μM riluzole, 24 hours; control cells increased by 191%
Experimental: as §1

SMILES: Nc1nc2ccc(OC(F)(F)F)cc2s1 [riluzole, Riluzole]
- toxicity to motor neuron culture [1]: toxic to the cells
- increase of TDP-43:MN ratio in response to Aβ1-42 insult relative to unchallenged cells [2]: 51%
